Results on five compounds are retold here after PubChem BioAssay AID652057 (Broad Institute, 2013).

About 1,000 (71%) of roughly 1,400 compounds were called active. The rule behind the calls is not given here. The set was probably picked from earlier hits. This is a selection; strong and weak results do not stand in their true shares. Results with a measured potency or affinity are listed apart.

This assay can be described thus: inhibitors of HIV Env-driven cell fusion, dose response, cherry-pick (AID 652057). The conditions noted are these: HeLa-JRFL Env/CEM21 cell fusion, luciferase; at 35 µM (top of the series).
With `O=C(Nc1cccc(OC(=O)N2CCOCC2)c1)N1CCOCC1`, the activity change, negative = inhibition was inactive: -16.4%. The result for `CC(C)NS(=O)(=O)c1ccc(OCC(=O)N2CCN(Cc3ccc4c(c3)OCO4)CC2)c(Cl)c1` reads inactive: -14.8%; that for `CCC(=NCCc1c[nH]c2ccccc12)c1c(O)n(C)c(=O)n(C)c1=O`, inactive: 12.6%. For `Cn1nc(-c2ccc(OCC(=O)N3CCN(Cc4ccccc4)CC3)cc2)c2ccccc2c1=O` the value was inactive: -18.5%. On to `CCC(=NCc1ccc(F)cc1)c1c(O)n(C)c(=O)n(C)c1=O`, for which the activity change, negative = inhibition is inactive: -35.1%.
